Amino acid sequences for entries named in this document (tags omitted). A change or cut given only in a name is not applied to a line headed by its entry.
UniProt Q9LN63: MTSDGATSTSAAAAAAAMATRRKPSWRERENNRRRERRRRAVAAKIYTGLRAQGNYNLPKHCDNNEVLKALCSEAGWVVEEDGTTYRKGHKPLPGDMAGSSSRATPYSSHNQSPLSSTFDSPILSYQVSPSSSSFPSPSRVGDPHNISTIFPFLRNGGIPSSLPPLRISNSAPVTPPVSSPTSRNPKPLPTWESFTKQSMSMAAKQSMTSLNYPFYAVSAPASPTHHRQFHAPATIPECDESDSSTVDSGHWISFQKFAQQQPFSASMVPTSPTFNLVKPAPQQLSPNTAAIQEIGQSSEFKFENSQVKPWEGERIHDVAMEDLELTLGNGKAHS
UniProt Q52QU2: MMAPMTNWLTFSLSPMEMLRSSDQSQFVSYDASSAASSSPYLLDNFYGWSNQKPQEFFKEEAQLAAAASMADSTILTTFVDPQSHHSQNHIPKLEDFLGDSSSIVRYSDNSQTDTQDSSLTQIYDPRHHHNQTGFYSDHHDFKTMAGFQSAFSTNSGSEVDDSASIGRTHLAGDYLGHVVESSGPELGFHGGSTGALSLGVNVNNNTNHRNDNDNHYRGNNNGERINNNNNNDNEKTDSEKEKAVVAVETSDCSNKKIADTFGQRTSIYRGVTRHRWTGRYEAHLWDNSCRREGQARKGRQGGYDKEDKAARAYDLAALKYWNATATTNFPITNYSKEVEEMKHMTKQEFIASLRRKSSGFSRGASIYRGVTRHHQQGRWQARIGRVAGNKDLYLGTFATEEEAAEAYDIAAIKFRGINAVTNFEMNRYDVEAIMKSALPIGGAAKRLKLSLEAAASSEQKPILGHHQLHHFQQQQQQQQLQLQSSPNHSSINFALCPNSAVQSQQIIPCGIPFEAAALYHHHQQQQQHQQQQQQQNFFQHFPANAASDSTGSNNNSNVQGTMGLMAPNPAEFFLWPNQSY
UniProt Q9ZNS0: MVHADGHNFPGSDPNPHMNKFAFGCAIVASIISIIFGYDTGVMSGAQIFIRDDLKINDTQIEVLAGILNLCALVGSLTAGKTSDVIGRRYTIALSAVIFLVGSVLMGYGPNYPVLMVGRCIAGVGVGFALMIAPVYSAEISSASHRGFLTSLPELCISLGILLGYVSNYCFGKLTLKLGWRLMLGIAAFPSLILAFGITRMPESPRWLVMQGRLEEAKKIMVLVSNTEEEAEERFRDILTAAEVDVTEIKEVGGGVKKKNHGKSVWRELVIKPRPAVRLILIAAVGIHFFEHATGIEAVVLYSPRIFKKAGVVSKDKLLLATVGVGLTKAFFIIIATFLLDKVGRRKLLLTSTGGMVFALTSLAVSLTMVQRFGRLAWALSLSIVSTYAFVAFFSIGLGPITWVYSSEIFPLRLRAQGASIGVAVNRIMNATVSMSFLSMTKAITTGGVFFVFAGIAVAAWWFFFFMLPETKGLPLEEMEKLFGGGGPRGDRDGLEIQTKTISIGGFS

According to paper PMC12069552, “Root stem cell homeostasis in Arabidopsis involves cell-type specific transcription factor complexes” (EMBO Reports, 2025):

Tests used:
[1] = biological target: T1, BRAVO-mV(N) (Arabidopsis thaliana) (UniProt Q6R053); experiment: split reporter; reconstitution of mVenus fluorescence from mV(N) and mV(C) fusions co-expressed in N. benthamiana epidermal leaf cells, used as donor for FRET-FLIM
T1 sequence: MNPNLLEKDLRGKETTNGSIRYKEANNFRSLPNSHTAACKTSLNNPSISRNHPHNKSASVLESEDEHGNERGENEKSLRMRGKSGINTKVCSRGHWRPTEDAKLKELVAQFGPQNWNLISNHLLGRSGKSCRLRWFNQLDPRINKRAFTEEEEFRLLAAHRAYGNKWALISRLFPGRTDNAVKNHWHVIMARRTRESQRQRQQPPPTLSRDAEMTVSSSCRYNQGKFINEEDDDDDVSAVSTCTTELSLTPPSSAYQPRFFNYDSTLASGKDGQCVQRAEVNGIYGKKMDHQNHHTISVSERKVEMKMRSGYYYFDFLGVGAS

[2] = biological target: T2, WOX5-mV(N) (Arabidopsis thaliana) (UniProt Q8H1D2); experiment: as above
T2 sequence: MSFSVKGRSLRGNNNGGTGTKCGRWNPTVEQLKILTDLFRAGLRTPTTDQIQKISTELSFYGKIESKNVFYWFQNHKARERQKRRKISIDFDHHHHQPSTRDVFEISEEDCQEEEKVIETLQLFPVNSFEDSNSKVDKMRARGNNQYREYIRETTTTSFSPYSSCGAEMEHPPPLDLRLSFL

[3] = biological target: BES1D-mVenus (Arabidopsis thaliana) (UniProt Q9LN63); experiment: FRET or BRET; FRET-FLIM in nuclei of transiently expressing N. benthamiana epidermal leaf cells; mVenus fusion as donor, mCherry fusion as acceptor; 'binding' [%] is the amplitude of the FRET component (number of donor molecules undergoing FRET); binding cutoff 10%; a binding not significantly different from the negative control (mCherry-NLS) is regarded as no interaction
TPL-mVenus = biological target: T3, TPL-mVenus (Arabidopsis thaliana, UniProt Q94AI7 1-1131); experiment: as above
T3 construct: TOPLESS (TPL) of Arabidopsis thaliana; the CDS amplified from cDNA; FRET donor; source: N. benthamiana abaxial epidermal leaf cells, transiently expressed (β-estradiol inducible), in cells
T3 sequence (looked up): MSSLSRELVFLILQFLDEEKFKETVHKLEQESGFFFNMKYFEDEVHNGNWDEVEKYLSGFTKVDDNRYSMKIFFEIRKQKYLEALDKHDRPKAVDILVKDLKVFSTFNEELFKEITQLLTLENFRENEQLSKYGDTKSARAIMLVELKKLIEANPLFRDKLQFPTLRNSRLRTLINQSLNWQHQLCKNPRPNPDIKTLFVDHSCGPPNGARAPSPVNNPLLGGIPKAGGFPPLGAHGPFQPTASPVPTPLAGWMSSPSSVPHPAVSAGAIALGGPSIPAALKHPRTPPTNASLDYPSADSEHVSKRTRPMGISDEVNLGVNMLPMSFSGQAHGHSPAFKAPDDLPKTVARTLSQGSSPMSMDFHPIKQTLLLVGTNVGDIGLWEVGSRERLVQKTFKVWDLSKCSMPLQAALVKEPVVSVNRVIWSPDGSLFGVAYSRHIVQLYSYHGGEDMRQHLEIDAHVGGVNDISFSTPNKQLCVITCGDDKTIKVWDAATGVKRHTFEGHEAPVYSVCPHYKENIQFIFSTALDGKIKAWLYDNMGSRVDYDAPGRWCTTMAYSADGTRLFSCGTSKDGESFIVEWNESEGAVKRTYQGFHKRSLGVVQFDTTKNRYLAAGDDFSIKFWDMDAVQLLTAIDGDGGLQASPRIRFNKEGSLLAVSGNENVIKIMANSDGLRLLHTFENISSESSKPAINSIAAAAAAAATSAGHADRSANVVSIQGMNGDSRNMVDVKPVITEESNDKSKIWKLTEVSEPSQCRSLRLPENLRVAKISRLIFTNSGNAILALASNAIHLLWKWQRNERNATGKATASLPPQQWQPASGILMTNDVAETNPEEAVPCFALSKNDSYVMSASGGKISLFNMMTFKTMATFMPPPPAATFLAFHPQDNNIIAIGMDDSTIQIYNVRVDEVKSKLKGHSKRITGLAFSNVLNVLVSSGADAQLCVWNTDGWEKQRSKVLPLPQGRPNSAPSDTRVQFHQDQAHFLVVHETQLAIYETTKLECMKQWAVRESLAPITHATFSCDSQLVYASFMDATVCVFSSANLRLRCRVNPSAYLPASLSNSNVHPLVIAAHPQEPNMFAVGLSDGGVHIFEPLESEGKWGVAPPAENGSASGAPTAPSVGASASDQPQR

| binding [1] | binding [2] | binding [3] | binding (TPL-mVenus) | Substance |
| --- | --- | --- | --- | --- |
| binds | binds | – | – | PLT3-mV(C) (from UniProt Q52QU2) |
| – | – | no binding | no binding | PLT3ΔPrD-mCherry (from UniProt Q9ZNS0) |

These are yes or no findings as the source states them, for the method shown. Binding seen in cells or lysates may run through a third protein. For some of these results: A result given as binding can be weak or reduced; the word gives no strength.
